These results are taken from patent US20260209325A1, “SELECTIVE AND POTENT INHIBITORY ANTIBODIES OF MYOSTATIN ACTIVATION” (SCHOLAR ROCK, INC., priority 2022, published 2026).

Chains of the proteins cited; added tags and fusions are not shown. Lines headed by an entry give the natural chain unless they say otherwise; changes in a name come on top.
UniProt O14793: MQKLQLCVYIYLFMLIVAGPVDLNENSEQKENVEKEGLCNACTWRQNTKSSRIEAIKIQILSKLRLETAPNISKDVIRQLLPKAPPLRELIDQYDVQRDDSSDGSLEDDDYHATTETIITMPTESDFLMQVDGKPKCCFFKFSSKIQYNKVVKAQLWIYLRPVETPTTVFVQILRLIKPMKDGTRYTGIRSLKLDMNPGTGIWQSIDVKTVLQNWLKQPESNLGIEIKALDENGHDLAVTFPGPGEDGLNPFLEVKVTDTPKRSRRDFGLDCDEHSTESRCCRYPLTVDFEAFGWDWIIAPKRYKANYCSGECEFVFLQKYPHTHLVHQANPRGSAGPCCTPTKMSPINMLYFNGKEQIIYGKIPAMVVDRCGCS

For this test, the target named is human pro-myostatin (human) (UniProt O14793). The test can be described thus: plate binding assay, OD 450 nm, antibody titrated 0.0003 to 100 nM, panel 'Hu-Pro-GDF-8 Plate 2' (method not described in the text).

Results are given in words; binding and its absence hold for the method and conditions named. Some binding calls cover weakened binding; strength is not graded here.

B1: Ab116 (antibody, human IgG4 S228P, kappa, V domains shown)
VH: QVQLVQSGAEVKKPGASVKVSCKVSGFTFSRPAIHWVRQAPGKGLEWMGGINPNAATTIYAQKFQGRVTMTEDTSTDTAYMELSSLKSEDTAVYYCARGRLLREWELRPYDTWGQGTLVTVSS
VL: DIQMTQSPSSVSASVGDRVTITCRASQSIGKSLAWYQQKPGKAPKLLIYSASNLRSGVPSRFSGSGSGTDFTLTISSLQPEDFANYYCQQYRDVPPITFGGGTKVEIKR
Consider B1, for which the binding result was “binds”.
